In PMC10185471:
Results are given in words; binding and its absence hold for the method and conditions named. In cells and extracts the contact can be indirect. Some entries that bind do so weakly or less than the wild type.

Chains of the proteins cited; added tags and fusions are not shown. Lines headed by an entry give the natural chain unless they say otherwise; changes in a name come on top. Residues count along the entry.
UniProt Q9Z2G6, residues 22-790: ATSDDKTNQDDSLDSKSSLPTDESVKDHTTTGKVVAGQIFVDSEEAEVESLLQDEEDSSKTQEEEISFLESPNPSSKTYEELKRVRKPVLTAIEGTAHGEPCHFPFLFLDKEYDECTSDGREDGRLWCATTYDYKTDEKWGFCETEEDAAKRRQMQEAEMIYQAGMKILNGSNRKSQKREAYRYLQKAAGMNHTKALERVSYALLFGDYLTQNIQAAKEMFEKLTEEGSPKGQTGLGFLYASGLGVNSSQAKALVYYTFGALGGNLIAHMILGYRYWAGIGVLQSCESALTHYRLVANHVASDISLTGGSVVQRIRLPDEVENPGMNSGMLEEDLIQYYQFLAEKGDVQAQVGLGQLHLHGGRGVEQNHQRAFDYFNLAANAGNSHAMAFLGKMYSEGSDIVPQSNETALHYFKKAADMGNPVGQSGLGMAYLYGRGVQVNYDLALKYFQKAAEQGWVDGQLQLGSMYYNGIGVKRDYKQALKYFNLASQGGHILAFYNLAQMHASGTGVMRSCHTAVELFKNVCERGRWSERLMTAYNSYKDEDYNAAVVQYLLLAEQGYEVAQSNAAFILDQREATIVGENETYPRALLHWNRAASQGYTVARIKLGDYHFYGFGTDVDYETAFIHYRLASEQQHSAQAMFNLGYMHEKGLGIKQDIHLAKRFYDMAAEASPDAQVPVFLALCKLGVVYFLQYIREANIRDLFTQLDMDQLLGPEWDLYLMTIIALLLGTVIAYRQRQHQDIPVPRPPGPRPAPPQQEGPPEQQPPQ
UniProt Q9DBY1: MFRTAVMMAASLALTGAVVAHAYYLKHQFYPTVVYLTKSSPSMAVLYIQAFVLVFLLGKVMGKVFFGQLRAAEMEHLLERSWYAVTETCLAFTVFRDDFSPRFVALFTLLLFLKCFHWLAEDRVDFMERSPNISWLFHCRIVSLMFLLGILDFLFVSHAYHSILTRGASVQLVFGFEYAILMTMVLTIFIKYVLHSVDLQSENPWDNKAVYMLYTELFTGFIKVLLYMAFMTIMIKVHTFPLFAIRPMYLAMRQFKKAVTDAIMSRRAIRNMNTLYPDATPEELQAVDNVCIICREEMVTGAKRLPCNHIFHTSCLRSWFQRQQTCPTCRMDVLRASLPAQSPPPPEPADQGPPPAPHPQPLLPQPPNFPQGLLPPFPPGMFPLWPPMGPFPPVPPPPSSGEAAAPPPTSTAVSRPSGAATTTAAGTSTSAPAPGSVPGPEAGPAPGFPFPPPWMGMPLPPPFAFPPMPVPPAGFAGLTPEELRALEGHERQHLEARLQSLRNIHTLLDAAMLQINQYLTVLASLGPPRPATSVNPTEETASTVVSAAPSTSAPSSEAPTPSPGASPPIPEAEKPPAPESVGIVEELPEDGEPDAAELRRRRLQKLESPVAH
UniProt P70302, residues 23-685: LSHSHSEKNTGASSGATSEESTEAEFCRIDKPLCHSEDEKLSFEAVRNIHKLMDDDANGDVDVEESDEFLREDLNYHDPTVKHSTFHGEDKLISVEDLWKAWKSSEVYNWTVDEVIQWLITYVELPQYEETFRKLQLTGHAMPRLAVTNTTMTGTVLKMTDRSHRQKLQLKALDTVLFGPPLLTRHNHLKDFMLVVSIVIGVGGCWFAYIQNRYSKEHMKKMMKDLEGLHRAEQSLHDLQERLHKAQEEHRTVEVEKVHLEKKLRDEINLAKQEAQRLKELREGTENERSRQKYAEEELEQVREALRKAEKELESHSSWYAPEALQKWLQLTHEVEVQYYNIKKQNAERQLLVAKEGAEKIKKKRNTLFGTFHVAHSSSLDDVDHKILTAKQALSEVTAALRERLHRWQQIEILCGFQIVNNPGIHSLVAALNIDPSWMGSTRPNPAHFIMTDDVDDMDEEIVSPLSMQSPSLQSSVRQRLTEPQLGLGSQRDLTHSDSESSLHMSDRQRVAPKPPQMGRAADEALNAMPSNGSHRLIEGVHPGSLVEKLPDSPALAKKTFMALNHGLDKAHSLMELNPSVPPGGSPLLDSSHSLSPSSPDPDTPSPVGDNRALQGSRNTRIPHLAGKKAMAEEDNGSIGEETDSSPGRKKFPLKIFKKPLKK

Experiments:
[1] = biological target: SEL1L (suppressor of lin-12-like), endogenous, mouse (mouse (endogenous in primary macrophages and RAW 264.7)) (UniProt Q9Z2G6); test: co-IP; immunoprecipitation of endogenous SEL1L (antibody and Protein A agarose) from lysates of mouse primary macrophages in the basal state; lysis buffer 150 mM NaCl, 1 mM EDTA, 50 mM Tris-HCl pH 7.5, 1% Triton X-100 or NP-40; 16 h at 4 °C; immunoblot; IgG control
[2] = biological target: T1, STING (stimulator of interferon genes), endogenous, mouse (mouse (endogenous in primary macrophages and MEF)) (UniProt Q3TBT3); test: co-IP; immunoprecipitation of endogenous STING (antibody and Protein A agarose) from lysates of mouse primary macrophages treated with or without DMXAA for 3 h; immunoblot
T1 sequence: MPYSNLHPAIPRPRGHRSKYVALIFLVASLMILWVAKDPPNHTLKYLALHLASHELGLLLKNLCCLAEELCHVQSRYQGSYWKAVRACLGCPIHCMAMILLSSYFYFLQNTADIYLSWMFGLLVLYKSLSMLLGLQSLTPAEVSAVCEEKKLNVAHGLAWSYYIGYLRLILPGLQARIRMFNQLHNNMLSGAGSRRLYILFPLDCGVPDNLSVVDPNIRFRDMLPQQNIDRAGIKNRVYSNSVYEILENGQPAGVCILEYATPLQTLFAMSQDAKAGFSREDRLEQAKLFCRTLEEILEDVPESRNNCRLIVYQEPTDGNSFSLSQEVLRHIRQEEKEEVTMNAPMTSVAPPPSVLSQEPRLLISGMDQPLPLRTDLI

binding [1] | binding [2] | Substance
binds | binds | HRD1 (HMG-CoA reductase degradation 1), endogenous, mouse (from UniProt Q9DBY1 1-612)
no binding |  | STIM1 (stromal interaction molecule 1), endogenous, mouse (from UniProt P70302 23-685)
 | binds | SEL1L (suppressor of lin-12-like), endogenous, mouse (from UniProt Q9Z2G6 22-790)
